Data: the supplement of paper PMC8728848
The list shows a part of the results.

What was measured:
Experiment in all cases: glycan array binding signal (z-score within array); higher = stronger binding
Details in all cases: glycan notation: IUPAC condensed, linker removed
[1] = target: Fuc(a1-2)Gal
Summary of the method: (§1)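 The Consortium for Functional Glycomics database supplied 3228 glycan arrays, of which those lacking an available protein sequence were dropped. The binding signal, a within-array Z-score, was averaged across arrays of the same protein sequence and across linkers. Negative scores can be read as non-binding.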

[2] = target: Fuc(a1-2)Gal(b1-3)GalNAc
Summary of the method: as §1

[3] = target: Fuc(a1-2)Gal(b1-3)GalNAc(a1-3)[Fuc(a1-2)]Gal(b1-4)Glc
Summary of the method: as §1

[4] = target: Fuc(a1-2)Gal(b1-3)GalNAc(a1-3)[Fuc(a1-2)]Gal(b1-4)GlcNAc
Summary of the method: as §1

[5] = target: Fuc(a1-2)Gal(b1-3)GalNAc(b1-3)Gal
Summary of the method: as §1

[6] = target: Fuc(a1-2)Gal(b1-3)GalNAc(b1-3)Gal(a1-4)Gal(b1-4)Glc
Summary of the method: as §1

[7] = target: Fuc(a1-2)Gal(b1-3)GalNAc(b1-4)[Neu5Ac(a2-3)]Gal(b1-4)Glc
Summary of the method: as §1

[8] = target: Fuc(a1-2)Gal(b1-3)GlcNAc
Summary of the method: as §1

[9] = target: Fuc(a1-2)Gal(b1-3)GlcNAc(b1-2)Man(a1-3)[Fuc(a1-2)Gal(b1-3)GlcNAc(b1-2)Man(a1-6)]Man(b1-4)GlcNAc(b1-4)GlcNAc
Summary of the method: as §1

[10] = target: Fuc(a1-2)Gal(b1-3)GlcNAc(b1-2)Man(a1-3)[Fuc(a1-2)Gal(b1-3)GlcNAc(b1-2)Man(a1-6)]Man(b1-4)GlcNAc(b1-4)[Fuc(a1-6)]GlcNAc
Summary of the method: as §1

[11] = target: Fuc(a1-2)Gal(b1-3)GlcNAc(b1-3)Gal(b1-4)Glc
Summary of the method: as §1

[12] = target: Fuc(a1-2)Gal(b1-3)GlcNAc(b1-3)GalNAc
Summary of the method: as §1

[13] = target: Fuc(a1-2)Gal(b1-3)GlcNAc(b1-3)[Fuc(a1-3)[Gal(b1-4)]GlcNAc(b1-6)]Gal(b1-4)Glc
Summary of the method: as §1

[14] = target: Fuc(a1-2)Gal(b1-3)GlcNAc(b1-3)[Gal(b1-4)GlcNAc(b1-6)]Gal(b1-4)Glc
Summary of the method: as §1

[15] = target: Fuc(a1-2)Gal(b1-3)GlcNAc(b1-3)[Neu5Ac(a2-6)Gal(b1-4)GlcNAc(b1-6)]Gal(b1-4)Glc
Summary of the method: as §1

[16] = target: Fuc(a1-2)Gal(b1-3)[Fuc(a1-4)]GlcNAc
Summary of the method: as §1

[17] = target: Fuc(a1-2)Gal(b1-3)[Fuc(a1-4)]GlcNAc(b1-2)Man(a1-3)[Fuc(a1-2)Gal(b1-3)[Fuc(a1-4)]GlcNAc(b1-2)Man(a1-6)]Man(b1-4)GlcNAc(b1-4)GlcNAc
Summary of the method: as §1

[18] = target: Fuc(a1-2)Gal(b1-3)[Fuc(a1-4)]GlcNAc(b1-3)[Fuc(a1-3)[Gal(b1-4)]GlcNAc(b1-6)]Gal(b1-4)Glc
Summary of the method: as §1

[19] = target: Fuc(a1-2)Gal(b1-3)[Fuc(a1-4)]GlcNAc(b1-3)[Gal(b1-4)GlcNAc(b1-6)]Gal(b1-4)Glc
Summary of the method: as §1

[20] = target: Fuc(a1-2)Gal(b1-4)Glc
Summary of the method: as §1

[21] = target: Fuc(a1-2)Gal(b1-4)Glc6S
Summary of the method: as §1

[22] = target: Fuc(a1-2)Gal(b1-4)GlcNAc
Summary of the method: as §1

[23] = target: Fuc(a1-2)Gal(b1-4)GlcNAc(b1-2)Man(a1-3)[Fuc(a1-2)Gal(b1-4)GlcNAc(b1-2)Man(a1-6)]Man(b1-4)GlcNAc(b1-4)GlcNAc
Summary of the method: as §1

[24] = target: Fuc(a1-2)Gal(b1-4)GlcNAc(b1-2)Man(a1-3)[Fuc(a1-2)Gal(b1-4)GlcNAc(b1-2)Man(a1-6)]Man(b1-4)GlcNAc(b1-4)[Fuc(a1-6)]GlcNAc
Summary of the method: as §1

[25] = target: Fuc(a1-2)Gal(b1-4)GlcNAc(b1-2)[Fuc(a1-2)Gal(b1-4)GlcNAc(b1-4)]Man(a1-3)[Fuc(a1-2)Gal(b1-4)GlcNAc(b1-2)Man(a1-6)]Man(b1-4)GlcNAc(b1-4)GlcNAc
Summary of the method: as §1

[26] = target: Fuc(a1-2)Gal(b1-4)GlcNAc(b1-3)Gal(b1-4)GlcNAc
Summary of the method: as §1

[27] = target: Fuc(a1-2)Gal(b1-4)GlcNAc(b1-3)Gal(b1-4)GlcNAc(b1-3)Gal(b1-4)GlcNAc
Summary of the method: as §1

[28] = target: Fuc(a1-2)Gal(b1-4)GlcNAc(b1-3)GalNAc
Summary of the method: as §1

[29] = target: Fuc(a1-2)Gal(b1-4)GlcNAc(b1-3)[Fuc(a1-2)Gal(b1-4)GlcNAc(b1-6)]GalNAc
Summary of the method: as §1

[30] = target: Fuc(a1-2)Gal(b1-4)GlcNAc6S
Summary of the method: as §1

[31] = target: Fuc(a1-2)Gal(b1-4)[Fuc(a1-3)]GlcNAc
Summary of the method: as §1

[32] = target: Fuc(a1-2)Gal(b1-4)[Fuc(a1-3)]GlcNAc(b1-2)Man(a1-3)[Fuc(a1-2)Gal(b1-4)[Fuc(a1-3)]GlcNAc(b1-2)Man(a1-6)]Man(b1-4)GlcNAc(b1-4)GlcNAc
Summary of the method: as §1

[33] = target: Fuc(a1-2)Gal(b1-4)[Fuc(a1-3)]GlcNAc(b1-2)[Fuc(a1-2)Gal(b1-4)[Fuc(a1-3)]GlcNAc(b1-4)]Man(a1-3)[Fuc(a1-2)Gal(b1-4)[Fuc(a1-3)]GlcNAc(b1-2)Man(a1-6)]Man(b1-4)GlcNAc(b1-4)GlcNAc
Summary of the method: as §1

[34] = target: Fuc(a1-2)Gal(b1-4)[Fuc(a1-3)]GlcNAc(b1-3)Gal(b1-4)[Fuc(a1-3)]GlcNAc
Summary of the method: as §1

[35] = target: Fuc(a1-2)Gal(b1-4)[Fuc(a1-3)]GlcNAc(b1-3)Gal(b1-4)[Fuc(a1-3)]GlcNAc(b1-3)Gal(b1-4)[Fuc(a1-3)]GlcNAc
Summary of the method: as §1

[36] = target: Fuc(a1-2)Gal(b1-4)[Fuc(a1-3)]GlcNAc(b1-3)GalNAc
Summary of the method: as §1

[37] = target: Fuc(a1-2)Gal6S(b1-4)Glc
Summary of the method: as §1

[38] = target: Fuc(a1-2)Gal6S(b1-4)Glc6S
Summary of the method: as §1

[39] = target: Fuc(a1-2)Gal6S(b1-4)GlcNAc
Summary of the method: as §1

[40] = target: Fuc(a1-2)[Gal(a1-3)]Gal
Summary of the method: as §1

[41] = target: Fuc(a1-2)[Gal(a1-3)]Gal(b1-3)GalNAc
Summary of the method: as §1

[42] = target: Fuc(a1-2)[Gal(a1-3)]Gal(b1-3)GlcNAc
Summary of the method: as §1

[43] = target: Fuc(a1-2)[Gal(a1-3)]Gal(b1-3)GlcNAc(b1-2)Man(a1-3)[Fuc(a1-2)[Gal(a1-3)]Gal(b1-3)GlcNAc(b1-2)Man(a1-6)]Man(b1-4)GlcNAc(b1-4)GlcNAc
Summary of the method: as §1

[44] = target: Fuc(a1-2)[Gal(a1-3)]Gal(b1-3)GlcNAc(b1-2)Man(a1-3)[Fuc(a1-2)[Gal(a1-3)]Gal(b1-3)GlcNAc(b1-2)Man(a1-6)]Man(b1-4)GlcNAc(b1-4)[Fuc(a1-6)]GlcNAc
Summary of the method: as §1

[45] = target: Fuc(a1-2)[Gal(a1-3)]Gal(b1-3)GlcNAc(b1-3)GalNAc
Summary of the method: as §1

B1: Flo11 (Saccharomyces cerevisiae), P08640 (protein)
chain: MQRPFLLAYLVLSLLFNSALGFPTALVPRGSSEGTSCNSIVNGCPNLDFNWHMDQQNIMQYTLDVTSVSWVQDNTYQITIHVKGKENIDLKYLWSLKIIGVTGPKGTVQLYGYNENTYLIDNPTDFTATFEVYATQDVNSCQVWMPNFQIQFEYLQGSAAQYASSWQWGTTSFDLSTGCNNYDNQGHSQTDFPGFYWNIDCDNNCGGTKSSTTTSSTSESSTTTSSTSESSTTTSSTSESSTTTSSTSESSTSSSTTAPATPTTTSCTKEKPTPPTTTSCTKEKPTPPHHDTTPCTKKKTTTSKTCTKKTTTPVPTPSSSTTESSSAPVPTPSSSTTESSSAPVTSSTTESSSAPVPTPSSSTTESSSAPVTSSTTESSSAPVTSSTTESSSAPVPTPSSSTTESSSAPVTSSTTESSSAPVTSSTTESSSAPVTSSTTESSSAPVTSSTTESSSAPVPTPSSSTTESSSAPVTSSTTESSSAPVPTPSSSTTESSSAPVTSSTTESSSAPVPTPSSSTTESSSAPAPTPSSSTTESSSAPVTSSTTESSSAPVPTPSSSTTESSSTPVTSSTTESSSAPVPTPSSSTTESSSAPVPTPSSSTTESSSAPAPTPSSSTTESSSAPVTSSTTESSSAPVPTPSSSTTESSSAPVPTPSSSTTESSSAPVPTPSSSTTESSSAPVTSSTTESSSAPVTSSTTESSSAPVPTPSSSTTESSSAPVPTPSSSTTESSSAPVPTPSSSTTESSSAPVTSSTTESSSAPVPTPSSSTTESSSAPVPTPSSSTTESSSAPVPTPSSSTTESSVAPVPTPSSSSNITSSAPSSTPFSSSTESSSVPVPTPSSSTTESSSAPVSSSTTESSVAPVPTPSSSSNITSSAPSSIPFSSTTESFSTGTTVTPSSSKYPGSQTETSVSSTTETTIVPTKTTTSVTTPSTTTITTTVCSTGTNSAGETTSGCSPKTVTTTVPTTTTTSVTTSSTTTITTTVCSTGTNSAGETTSGCSPKTITTTVPCSTSPSETASESTTTSPTTPVTTVVSTTVVTTEYSTSTKPGGEITTTFVTKNIPTTYLTTIAPTPSVTTVTNFTPTTITTTVCSTGTNSAGETTSGCSPKTVTTTVPCSTGTGEYTTEATTLVTTAVTTTVVTTESSTGTNSAGKTTTGYTTKSVPTTYVTTLAPSAPVTPATNAVPTTITTTECSAATNAAGETTSVCSAKTIVSSASAGENTAPSATTPVTTAIPTTVITTESSVGTNSAGETTTGYTTKSIPTTYITTLIPGSNGAKNYETVATATNPISIKTTSQLATTASASSVAPVVTSPSLTGPLQSASGSAVATYSVPSISSTYQGAANIKVLGNFMWLLLALPVVF
- glycan array binding signal (z-score) [1]: -0.634
- glycan array binding signal (z-score) [2]: -0.307
- glycan array binding signal (z-score) [3]: 1.02
- glycan array binding signal (z-score) [4]: 0.964
- glycan array binding signal (z-score) [5]: 4.03
- glycan array binding signal (z-score) [6]: -0.679
- glycan array binding signal (z-score) [7]: 0.519
- glycan array binding signal (z-score) [8]: -0.02
- glycan array binding signal (z-score) [9]: 0.3
- glycan array binding signal (z-score) [10]: 0.319
- glycan array binding signal (z-score) [11]: -0.645
- glycan array binding signal (z-score) [12]: -1.08
- glycan array binding signal (z-score) [13]: -0.176
- glycan array binding signal (z-score) [14]: -0.282
- glycan array binding signal (z-score) [15]: -0.495
- glycan array binding signal (z-score) [16]: -0.133
- glycan array binding signal (z-score) [17]: -0.514
- glycan array binding signal (z-score) [18]: 0.43
- glycan array binding signal (z-score) [19]: -0.237
- glycan array binding signal (z-score) [20]: -0.316
- glycan array binding signal (z-score) [21]: -0.035
- glycan array binding signal (z-score) [22]: -0.335
- glycan array binding signal (z-score) [23]: 0.607
- glycan array binding signal (z-score) [24]: -0.198
- glycan array binding signal (z-score) [25]: -0.519
- glycan array binding signal (z-score) [26]: 0.24
- glycan array binding signal (z-score) [27]: -1.32
- glycan array binding signal (z-score) [28]: 1.35
- glycan array binding signal (z-score) [29]: -0.989
- glycan array binding signal (z-score) [30]: 1.02
- glycan array binding signal (z-score) [31]: -0.01
- glycan array binding signal (z-score) [32]: 0.704
- glycan array binding signal (z-score) [33]: 1.64
- glycan array binding signal (z-score) [34]: 0.588
- glycan array binding signal (z-score) [35]: 0.258
- glycan array binding signal (z-score) [36]: 5.39
- glycan array binding signal (z-score) [37]: 1.42
- glycan array binding signal (z-score) [38]: 0.012
- glycan array binding signal (z-score) [39]: -0.166
- glycan array binding signal (z-score) [40]: -0.3
- glycan array binding signal (z-score) [41]: -0.253
- glycan array binding signal (z-score) [42]: -0.315
- glycan array binding signal (z-score) [43]: -0.389
- glycan array binding signal (z-score) [44]: 1.01
- glycan array binding signal (z-score) [45]: -0.007
